Experimental data from patent US20220089705A1.
No constants are given. Whether binding was seen depends on the method and setting. In cells and extracts the contact can be indirect. Some entries that bind do so weakly or less than the wild type.

The chains behind the UniProt entries cited, without tags or fusion partners.
UniProt Q9R1E0: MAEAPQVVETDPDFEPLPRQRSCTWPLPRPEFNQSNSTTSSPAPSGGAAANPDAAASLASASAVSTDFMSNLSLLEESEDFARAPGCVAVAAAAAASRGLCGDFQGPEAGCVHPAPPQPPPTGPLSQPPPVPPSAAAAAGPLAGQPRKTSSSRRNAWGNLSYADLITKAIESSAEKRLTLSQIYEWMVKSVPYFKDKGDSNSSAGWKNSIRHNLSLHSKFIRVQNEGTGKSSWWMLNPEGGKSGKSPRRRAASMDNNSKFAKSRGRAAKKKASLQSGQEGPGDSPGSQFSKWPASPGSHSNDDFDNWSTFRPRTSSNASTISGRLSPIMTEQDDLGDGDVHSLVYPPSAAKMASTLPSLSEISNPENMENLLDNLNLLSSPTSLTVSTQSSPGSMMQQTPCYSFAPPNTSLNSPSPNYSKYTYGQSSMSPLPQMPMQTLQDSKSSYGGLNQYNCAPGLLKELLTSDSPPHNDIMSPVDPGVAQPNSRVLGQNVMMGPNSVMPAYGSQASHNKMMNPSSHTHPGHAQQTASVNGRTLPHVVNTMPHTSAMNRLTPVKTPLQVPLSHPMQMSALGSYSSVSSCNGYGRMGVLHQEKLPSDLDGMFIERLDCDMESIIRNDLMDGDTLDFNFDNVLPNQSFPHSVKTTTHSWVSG
UniProt P56546: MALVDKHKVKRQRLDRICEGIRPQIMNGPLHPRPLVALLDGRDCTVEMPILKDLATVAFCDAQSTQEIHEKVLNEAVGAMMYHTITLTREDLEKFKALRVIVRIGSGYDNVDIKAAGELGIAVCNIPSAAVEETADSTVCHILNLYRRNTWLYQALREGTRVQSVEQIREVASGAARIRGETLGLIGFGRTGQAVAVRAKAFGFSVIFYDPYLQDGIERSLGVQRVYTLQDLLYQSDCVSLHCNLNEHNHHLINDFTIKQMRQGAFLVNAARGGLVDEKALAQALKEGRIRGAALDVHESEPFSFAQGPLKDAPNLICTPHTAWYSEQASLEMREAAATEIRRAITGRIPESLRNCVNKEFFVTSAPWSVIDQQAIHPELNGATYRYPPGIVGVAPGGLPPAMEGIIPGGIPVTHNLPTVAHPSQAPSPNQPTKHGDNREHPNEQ

Tests used:
[1] = target: FoxO1, endogenous (mouse primary hepatocytes and mouse liver) (mouse) (UniProt Q9R1E0); test: co-immunoprecipitation of the native complex from primary hepatocytes treated with or without 50 µg/ml aP2 and with or without forskolin for 2 h; IP anti-CtBP2, Western blot for FoxO1
[2] = target: FoxO1, endogenous (mouse primary hepatocytes and mouse liver) (mouse) (UniProt Q9R1E0); test: co-immunoprecipitation of the endogenous complex from primary hepatocytes
[3] = target: FoxO1, endogenous (mouse primary hepatocytes and mouse liver) (mouse) (UniProt Q9R1E0); test: co-immunoprecipitation of the endogenous complex from liver of mice given recombinant aP2
[4] = target: FoxO1, endogenous (mouse primary hepatocytes and mouse liver) (mouse) (UniProt Q9R1E0); test: co-immunoprecipitation of the endogenous complex from mouse liver homogenates
[5] = target: CtBP2, endogenous (mouse primary hepatocytes and mouse liver) (mouse) (UniProt P56546); test: co-immunoprecipitation from mouse liver homogenate (aP2 KO or WT mice, NC or HFD); IP anti-FoxO1, Western blot for CtBP2
[6] = target: CtBP2, endogenous (mouse primary hepatocytes and mouse liver) (mouse) (UniProt P56546); test: co-immunoprecipitation from mouse liver homogenate (lean NC mice, HFD mice given vehicle or monoclonal aP2 antibody CA33); IP anti-FoxO1, Western blot for CtBP2
[7] = target: CtBP2, endogenous (mouse primary hepatocytes and mouse liver) (mouse) (UniProt P56546); test: co-immunoprecipitation with anti-FoxO1 from liver homogenates of lean and ob/ob mice, blot CtBP2
[8] = target: CtBP2, endogenous (mouse primary hepatocytes and mouse liver) (mouse) (UniProt P56546); test: densitometric ratio of co-precipitated CtBP2 to precipitated FoxO1 of the blot of FIG. 36C
[9] = target: CtBP2, endogenous (mouse primary hepatocytes and mouse liver) (mouse) (UniProt P56546); test: densitometric quantification of the co-immunoprecipitation blot of FIG. 36E (mouse liver)
[10] = target: CtBP2, endogenous (mouse primary hepatocytes and mouse liver) (mouse) (UniProt P56546); test: co-immunoprecipitation with anti-FoxO1 from primary hepatocytes treated with or without 50 µg/ml aP2 and 2 µM forskolin, blot CtBP2
[11] = target: CtBP2, endogenous (mouse primary hepatocytes and mouse liver) (mouse) (UniProt P56546); test: densitometric quantification of the co-immunoprecipitation blot of FIG. 36G (mouse liver)
[12] = target: CtBP2, endogenous (mouse primary hepatocytes and mouse liver) (mouse) (UniProt P56546); test: densitometric quantification of the co-immunoprecipitation blot of FIG. 36J (mouse liver)
[13] = target: CtBP2, endogenous (mouse primary hepatocytes and mouse liver) (mouse) (UniProt P56546); test: densitometric ratio of co-precipitated CtBP2 to precipitated FoxO1 of the blot of FIG. 36A
[14] = target: CtBP2, endogenous (mouse primary hepatocytes and mouse liver) (mouse) (UniProt P56546); test: co-immunoprecipitation with anti-FoxO1 from liver homogenates of mice on normal chow or high fat diet, blot CtBP2
[15] = target: CtBP2, endogenous (mouse primary hepatocytes and mouse liver) (mouse) (UniProt P56546); test: co-immunoprecipitation from liver homogenate of lean wild-type mice given vehicle or recombinant aP2 for 5 days; IP anti-FoxO1, Western blot for CtBP2

Measured: binding

CtBP2, endogenous (mouse primary hepatocytes and mouse liver) (from UniProt P56546 1-445)
binds: [1] | [2] | [3] | [4]

FoxO1, endogenous (mouse primary hepatocytes and mouse liver) (from UniProt Q9R1E0 1-652)
not listed: [1] | [2] | [3] | [4]
binds: all other assays above
